Results are given in words; binding and its absence hold for the method and conditions named. For part of these data: Binding seen in cells or lysates may run through a third protein. Some entries that bind do so weakly or less than the wild type. Where a sequence is shown, tags or fusion partners need not be part of it.

The target in test [1] is T1, Atg11, full length, Gal4 AD or BD fusion (yeast two-hybrid) (S. cerevisiae) (UniProt Q12527).
T1 sequence: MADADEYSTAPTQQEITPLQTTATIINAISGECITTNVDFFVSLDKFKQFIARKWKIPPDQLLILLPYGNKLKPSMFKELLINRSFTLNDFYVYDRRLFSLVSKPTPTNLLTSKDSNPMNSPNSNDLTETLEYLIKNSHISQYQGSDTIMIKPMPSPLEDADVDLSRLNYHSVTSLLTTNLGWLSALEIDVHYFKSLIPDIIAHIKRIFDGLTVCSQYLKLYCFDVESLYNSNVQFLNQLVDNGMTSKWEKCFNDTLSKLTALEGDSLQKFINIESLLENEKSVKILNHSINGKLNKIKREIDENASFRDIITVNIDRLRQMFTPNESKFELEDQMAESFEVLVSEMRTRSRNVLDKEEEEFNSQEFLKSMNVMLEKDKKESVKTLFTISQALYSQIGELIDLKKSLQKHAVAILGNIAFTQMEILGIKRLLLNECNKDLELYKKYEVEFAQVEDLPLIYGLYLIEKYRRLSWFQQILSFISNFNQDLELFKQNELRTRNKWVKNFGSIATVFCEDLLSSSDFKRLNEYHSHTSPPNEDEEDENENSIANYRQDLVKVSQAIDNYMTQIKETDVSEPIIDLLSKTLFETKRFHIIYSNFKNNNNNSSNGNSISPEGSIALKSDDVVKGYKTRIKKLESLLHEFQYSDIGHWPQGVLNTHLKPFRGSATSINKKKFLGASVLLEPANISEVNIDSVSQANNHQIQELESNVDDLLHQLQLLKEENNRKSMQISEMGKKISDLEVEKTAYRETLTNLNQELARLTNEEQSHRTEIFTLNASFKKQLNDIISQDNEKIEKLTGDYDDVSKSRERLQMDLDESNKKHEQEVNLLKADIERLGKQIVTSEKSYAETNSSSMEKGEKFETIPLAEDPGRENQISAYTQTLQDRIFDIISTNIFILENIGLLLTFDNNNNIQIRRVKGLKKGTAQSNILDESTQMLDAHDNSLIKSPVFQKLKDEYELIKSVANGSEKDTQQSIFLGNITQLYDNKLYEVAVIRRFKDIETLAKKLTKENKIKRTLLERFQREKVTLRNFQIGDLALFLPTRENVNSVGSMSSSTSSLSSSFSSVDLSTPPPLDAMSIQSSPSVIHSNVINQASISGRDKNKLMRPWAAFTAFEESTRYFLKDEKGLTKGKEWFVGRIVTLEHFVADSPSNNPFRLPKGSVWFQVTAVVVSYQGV
In words: two-hybrid; Gal4 AD/BD fusions from pGADC1 and pGBDC1 co-transformed into strain PJ69-4A; scored by white colonies on medium with 6 µg/mL adenine and/or growth on SD -trp -leu -his with 2 mM 3-AT, 30 °C.

Test [2] has as its target T2, VN-tagged Spc72 (VN173-Spc72) (S. cerevisiae) (UniProt P39723).
T2 sequence: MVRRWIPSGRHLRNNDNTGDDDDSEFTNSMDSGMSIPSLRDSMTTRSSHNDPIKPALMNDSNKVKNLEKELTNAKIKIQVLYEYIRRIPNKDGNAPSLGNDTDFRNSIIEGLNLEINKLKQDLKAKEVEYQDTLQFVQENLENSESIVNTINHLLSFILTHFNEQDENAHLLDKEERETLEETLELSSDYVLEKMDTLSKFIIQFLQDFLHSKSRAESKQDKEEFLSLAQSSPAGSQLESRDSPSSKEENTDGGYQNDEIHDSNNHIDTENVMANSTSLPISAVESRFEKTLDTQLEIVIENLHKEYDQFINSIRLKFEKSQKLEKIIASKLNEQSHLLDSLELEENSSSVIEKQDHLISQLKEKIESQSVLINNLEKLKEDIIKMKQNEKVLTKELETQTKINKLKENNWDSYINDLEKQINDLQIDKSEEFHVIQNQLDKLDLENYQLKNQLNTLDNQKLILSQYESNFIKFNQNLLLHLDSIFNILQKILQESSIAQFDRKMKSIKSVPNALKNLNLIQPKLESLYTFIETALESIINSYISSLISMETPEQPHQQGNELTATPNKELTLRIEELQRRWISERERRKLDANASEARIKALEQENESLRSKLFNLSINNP
In words: split reporter; BiFC in living diploid S. cerevisiae cells co-expressing VN-Spc72 and VC-Atg11, grown in YEP with 2% galactose for 3 h; Venus signal imaged with FM4-64 (vacuolar membrane) or Spc42-mCherry (SPBs).

The target of test [3] is T3, Spc72, full length, Gal4 AD or BD fusion (yeast two-hybrid) (S. cerevisiae) (UniProt P39723).
T3 sequence: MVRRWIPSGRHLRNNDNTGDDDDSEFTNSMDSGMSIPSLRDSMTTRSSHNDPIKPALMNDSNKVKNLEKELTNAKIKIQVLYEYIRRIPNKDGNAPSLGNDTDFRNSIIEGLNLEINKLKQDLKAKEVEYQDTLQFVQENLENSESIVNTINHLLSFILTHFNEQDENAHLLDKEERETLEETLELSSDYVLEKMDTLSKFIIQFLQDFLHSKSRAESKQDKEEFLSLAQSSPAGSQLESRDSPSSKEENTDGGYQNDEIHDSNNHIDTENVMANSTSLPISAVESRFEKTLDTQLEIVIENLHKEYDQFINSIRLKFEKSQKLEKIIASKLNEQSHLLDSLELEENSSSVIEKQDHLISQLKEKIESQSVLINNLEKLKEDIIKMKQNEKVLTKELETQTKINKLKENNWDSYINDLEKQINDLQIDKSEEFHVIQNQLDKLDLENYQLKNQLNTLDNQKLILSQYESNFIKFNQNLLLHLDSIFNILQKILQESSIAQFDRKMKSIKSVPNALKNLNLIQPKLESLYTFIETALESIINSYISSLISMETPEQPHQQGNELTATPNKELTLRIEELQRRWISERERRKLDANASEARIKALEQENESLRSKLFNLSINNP
In words: two-hybrid; Gal4 AD/BD fusions from pGADC1 and pGBDC1 co-transformed into strain PJ69-4A; scored by white colonies on medium with 6 µg/mL adenine and/or growth on SD -trp -leu -his with 2 mM 3-AT, 30 °C.

B1: Cnm67, full length, Gal4 AD or BD fusion (yeast two-hybrid) (protein, UniProt P53865 1-581)
chain: MTDFDLMNFPFHERLDSPVSENGEIKDGEPIPQNWLNENHVGKSILPLFVNPEDVINCNFSNARDSYEENKSPSMDQMNYARNTSYQESPGLQERPKNEKDKSPIGTDVHKKDVPNFIHSTPRENSSKHFTRANEQASAQPTDEHTSPDISIEDCNGAKIFLQNSLSKEDFRMLENVILGYQKKVIELGRDNLRQEERANSLQKELEAATKSNDKTLDNKKKIEEQTVLIENLTKDLSLNKEMLEKANDTIQTKHTALLSLTDSLRKAELFEIPIGILFFDLYDSEENSSKLDHILQEKYPNIKGFLCASQQEELSRISQRFKNAKAEAEDLRNELENKKIEIQTMREKNNTLIGTNKTLSKQNKILCDKFDKLTIDEKEILKGCNEEIKIKLERLNERLGSWEKSKEKYETSLKDKEKMLADAEKKTNTLSKELDNLRSRFGNLEGNTSERITIKNILQSRPDISAEECNFLMVEQIDSANLTTLQNTVKEIVLAVGIPYPKLRRKIPLLAIKLKYENIMLSNFAQRLHRQVYSQEMNLKKFTDQAYYDFMSTRRMDSIDHHLERCLDHLYDHILEKMVK
B1: the binding result in test [1] was “no binding”.

B2: VC-tagged Atg11 (VC155-Atg11) (protein, UniProt Q12527 1-1178)
chain: MADADEYSTAPTQQEITPLQTTATIINAISGECITTNVDFFVSLDKFKQFIARKWKIPPDQLLILLPYGNKLKPSMFKELLINRSFTLNDFYVYDRRLFSLVSKPTPTNLLTSKDSNPMNSPNSNDLTETLEYLIKNSHISQYQGSDTIMIKPMPSPLEDADVDLSRLNYHSVTSLLTTNLGWLSALEIDVHYFKSLIPDIIAHIKRIFDGLTVCSQYLKLYCFDVESLYNSNVQFLNQLVDNGMTSKWEKCFNDTLSKLTALEGDSLQKFINIESLLENEKSVKILNHSINGKLNKIKREIDENASFRDIITVNIDRLRQMFTPNESKFELEDQMAESFEVLVSEMRTRSRNVLDKEEEEFNSQEFLKSMNVMLEKDKKESVKTLFTISQALYSQIGELIDLKKSLQKHAVAILGNIAFTQMEILGIKRLLLNECNKDLELYKKYEVEFAQVEDLPLIYGLYLIEKYRRLSWFQQILSFISNFNQDLELFKQNELRTRNKWVKNFGSIATVFCEDLLSSSDFKRLNEYHSHTSPPNEDEEDENENSIANYRQDLVKVSQAIDNYMTQIKETDVSEPIIDLLSKTLFETKRFHIIYSNFKNNNNNSSNGNSISPEGSIALKSDDVVKGYKTRIKKLESLLHEFQYSDIGHWPQGVLNTHLKPFRGSATSINKKKFLGASVLLEPANISEVNIDSVSQANNHQIQELESNVDDLLHQLQLLKEENNRKSMQISEMGKKISDLEVEKTAYRETLTNLNQELARLTNEEQSHRTEIFTLNASFKKQLNDIISQDNEKIEKLTGDYDDVSKSRERLQMDLDESNKKHEQEVNLLKADIERLGKQIVTSEKSYAETNSSSMEKGEKFETIPLAEDPGRENQISAYTQTLQDRIFDIISTNIFILENIGLLLTFDNNNNIQIRRVKGLKKGTAQSNILDESTQMLDAHDNSLIKSPVFQKLKDEYELIKSVANGSEKDTQQSIFLGNITQLYDNKLYEVAVIRRFKDIETLAKKLTKENKIKRTLLERFQREKVTLRNFQIGDLALFLPTRENVNSVGSMSSSTSSLSSSFSSVDLSTPPPLDAMSIQSSPSVIHSNVINQASISGRDKNKLMRPWAAFTAFEESTRYFLKDEKGLTKGKEWFVGRIVTLEHFVADSPSNNPFRLPKGSVWFQVTAVVVSYQGV
On to B2, for which the binding result in test [2] was “binds”.

B3: Atg11, full length, Gal4 AD or BD fusion (yeast two-hybrid) (protein, UniProt Q12527 1-1178)
chain: MADADEYSTAPTQQEITPLQTTATIINAISGECITTNVDFFVSLDKFKQFIARKWKIPPDQLLILLPYGNKLKPSMFKELLINRSFTLNDFYVYDRRLFSLVSKPTPTNLLTSKDSNPMNSPNSNDLTETLEYLIKNSHISQYQGSDTIMIKPMPSPLEDADVDLSRLNYHSVTSLLTTNLGWLSALEIDVHYFKSLIPDIIAHIKRIFDGLTVCSQYLKLYCFDVESLYNSNVQFLNQLVDNGMTSKWEKCFNDTLSKLTALEGDSLQKFINIESLLENEKSVKILNHSINGKLNKIKREIDENASFRDIITVNIDRLRQMFTPNESKFELEDQMAESFEVLVSEMRTRSRNVLDKEEEEFNSQEFLKSMNVMLEKDKKESVKTLFTISQALYSQIGELIDLKKSLQKHAVAILGNIAFTQMEILGIKRLLLNECNKDLELYKKYEVEFAQVEDLPLIYGLYLIEKYRRLSWFQQILSFISNFNQDLELFKQNELRTRNKWVKNFGSIATVFCEDLLSSSDFKRLNEYHSHTSPPNEDEEDENENSIANYRQDLVKVSQAIDNYMTQIKETDVSEPIIDLLSKTLFETKRFHIIYSNFKNNNNNSSNGNSISPEGSIALKSDDVVKGYKTRIKKLESLLHEFQYSDIGHWPQGVLNTHLKPFRGSATSINKKKFLGASVLLEPANISEVNIDSVSQANNHQIQELESNVDDLLHQLQLLKEENNRKSMQISEMGKKISDLEVEKTAYRETLTNLNQELARLTNEEQSHRTEIFTLNASFKKQLNDIISQDNEKIEKLTGDYDDVSKSRERLQMDLDESNKKHEQEVNLLKADIERLGKQIVTSEKSYAETNSSSMEKGEKFETIPLAEDPGRENQISAYTQTLQDRIFDIISTNIFILENIGLLLTFDNNNNIQIRRVKGLKKGTAQSNILDESTQMLDAHDNSLIKSPVFQKLKDEYELIKSVANGSEKDTQQSIFLGNITQLYDNKLYEVAVIRRFKDIETLAKKLTKENKIKRTLLERFQREKVTLRNFQIGDLALFLPTRENVNSVGSMSSSTSSLSSSFSSVDLSTPPPLDAMSIQSSPSVIHSNVINQASISGRDKNKLMRPWAAFTAFEESTRYFLKDEKGLTKGKEWFVGRIVTLEHFVADSPSNNPFRLPKGSVWFQVTAVVVSYQGV
Consider B3, for which the binding result in test [3] is on record as “binds”.

The values are drawn from publication PMC11984983.
